Results published in US20190175609A1, “THERAPEUTIC USES OF A C-RAF INHIBITOR” (Novartis AG, priority 2016, published 2019).
Results are given in words; binding and its absence hold for the method and conditions named. Some binding calls cover weakened binding; strength is not graded here.

Chains of the proteins cited; added tags and fusions are not shown. Lines headed by an entry give the natural chain unless they say otherwise; changes in a name come on top. Residues count along the entry.
UniProt Q15116: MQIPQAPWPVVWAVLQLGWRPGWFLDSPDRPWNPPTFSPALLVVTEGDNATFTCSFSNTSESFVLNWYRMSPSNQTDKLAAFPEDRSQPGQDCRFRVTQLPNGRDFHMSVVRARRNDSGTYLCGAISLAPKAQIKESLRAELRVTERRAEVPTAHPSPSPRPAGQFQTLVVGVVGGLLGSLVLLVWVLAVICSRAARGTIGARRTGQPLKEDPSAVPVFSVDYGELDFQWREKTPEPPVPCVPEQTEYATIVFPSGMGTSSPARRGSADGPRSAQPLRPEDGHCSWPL
PD-1 on PD-1-expressing 300.19 cells: residues 25-288 of Q15116
Programmed Death 1 (PD-1): residues 25-167 of Q15116

How the values were obtained:
[1] = target: Programmed Death 1 (PD-1) (UniProt Q15116); test: FACS ligand blocking: mAb titrated, signal of PD-L2-Ig (blocked ligand) bound to PD-1; cells not named
[2] = target: Programmed Death 1 (PD-1) (UniProt Q15116); test: FACS binding analysis at 200, 100, 50, 25 and 12.5 ng/ml; cells and target not named in legend paragraph 42 (anti-PD-1 mAbs)
[3] = target: Programmed Death 1 (PD-1) (UniProt Q15116); test: FACS ligand blocking: mAb titrated, signal of ligand-Ig bound to PD-1; legend paragraph 46 names PD-L1-Ig and PD-L2-Ig as blocked ligands for FIG. 8A; cells not named
[4] = target: PD-1 on PD-1-expressing 300.19 cells (UniProt Q15116); test: FACS competition binding, Experiment 1: test mAb serially diluted against a constant concentration of Alexa 488-labeled murine mAb BAP049 (competitor) on PD-1-expressing 300.19 cells; x axis is the ratio conc. test mAb / conc. labelled murine mAb
[5] = target: PD-1 on PD-1-expressing 300.19 cells (UniProt Q15116); test: FACS competition binding, Experiment 2: test mAb serially diluted against a constant concentration of Alexa 488-labeled murine mAb BAP049 (competitor) on PD-1-expressing 300.19 cells; x axis is the ratio conc. test mAb / conc. labelled murine mAb

| binding [4] | binding [5] | Binder | binding [1] | binding [2] | binding [3] |
| --- | --- | --- | --- | --- | --- |
| binds | binds | BAP049-hum01 (antibody, human IgG4 S228P, kappa, V domains shown) VH: EVQLVQSGAEVKKPGESLRISCKGSGYTFTTYWMHWVRQATGQGLEWMGNIYPGTGGSNFDEKFKNRVTITADKSTSTAYMELSSLRSEDTAVYYCTRWTTGTGAYWGQGTTVTVSS VL: EIVLTQSPATLSLSPGERATLSCKSSQSLLDSGNQKNFLTWYQQKPGQAPRLLIYWASTRESGVPSRFSGSGSGTEFTLTISSLQPDDFATYYCQNDYSYPYTFGQGTKVEIKR | binds | binds | binds |
| binds | binds | BAP049-hum05 (antibody, human IgG4 S228P, kappa, V domains shown) VH: EVQLVQSGAEVKKPGESLRISCKGSGYTFTTYWMHWVRQATGQGLEWMGNIYPGTGGSNFDEKFKNRVTITADKSTSTAYMELSSLRSEDTAVYYCTRWTTGTGAYWGQGTTVTVSS VL: EIVLTQSPATLSLSPGERATLSCKSSQSLLDSGNQKNFLTWYQQKPGKAPKLLIYWASTRESGVPSRFSGSGSGTDFTFTISSLQPEDIATYYCQNDYSYPYTFGQGTKVEIKR | binds | binds | binds |
